From PubChem BioAssay (Tox21)
Several values for one entry are separate records, joined by “and”; a condition that tells them apart may be missing. Equal values may be shown once. The shares of active, inactive and inconclusive entries below differ from those in the screen. A potency beside an inconclusive call is a rough fit, not a confirmed value. Activity calls are given as the source filed them. Calls come from the whole dose curve; as a rule, active = well fitted cell-killing curve with a large enough effect in the repeat runs; inconclusive = weak or mixed curves, or effect the other way; inactive = flat fitted curve, though single readings scatter.

assay: cAMP Responsive Elements (CRE) small molecule agonists, cell-based qHTS assay: qHTS cell viability counter screen (AID 2060914); conditions: CRE-bla HEK293T viability, CellTiter-Glo luminescence, 5 h; series mostly up to 92.4 µM; activity change, negative = cytotoxicity: at the top concentration; note: nearly all actives have a fitted effect of over 50% in size
Method in brief: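 Cytotoxicity counter screen multiplexed with the CRE-bla reporter assay in HEK 293T cells: 3 h compound exposure at 37 °C, followed by CellTiter-Glo luminescence measured in the same wells.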
% is set by controls: 0 for no effect and ±100 for the full control effect; potency is the fitted concentration of half-maximal effect.

Row | Compound | Potency | activity change, negative = cytotoxicity
1 | CC12CC1(C)C(=O)N(c1cc(Cl)cc(Cl)c1)C2=O (centres undefined) | inconclusive: 0.611 µM [cytotoxic, single point] | 
2 | CCOP(=S)(Oc1cnc(C(C)(C)C)nc1)OC(C)C (centres undefined) | inconclusive: 6.11 µM [cytotoxic, single point] | 
3 | CC(Cl)C(C)Cl (centres undefined) | inconclusive: 26.9 µM [cytotoxic, single point] | 
4 | CC(C)=C[C@@H]1[C@@H](C(=O)OCc2coc(Cc3ccccc3)c2)C1(C)C | inconclusive: 21.1 µM [cytotoxic, partial curve, poor fit] | 
5 | N#CC(Br)Br | inconclusive: 1.54 µM [cytotoxic, single point] | 
6 | COc1cc(CC#N)cc(OC)c1OC | inconclusive: 1.19 µM [cytotoxic, single point] | 
7 | CCC(=O)c1ccccc1 |  | inactive: 0.33%
8 | CCNS(=O)(=O)C(F)(F)C(F)(F)C(F)(F)C(F)(F)C(F)(F)C(F)(F)C(F)(F)C(F)(F)F | inconclusive: 6.57 µM [cytotoxic, partial curve, poor fit] | 
9 | COc1cc(OC)c(OC)cc1C=O | inconclusive: 26.5 µM [cytotoxic, single point] | 
10 | CC(C)[C@]12CC(=O)[C@H](C)[C@H]1C2 |  | inactive: 1.37%
11 | O=C(Cl)OCc1ccccc1 | inconclusive: 27.6 µM [rising, partial curve, poor fit] | 
12 | CCCCNP(N)(N)=S |  | inactive: -6.6%
13 | ClCCCCCCCl |  | inactive: -4.8%
14 | CCCCCc1cc(O)cc(O)c1 | inconclusive: 27.3 µM [cytotoxic, single point] | 
15 | O=C(Nc1ccccc1)Nc1cnns1 | inconclusive: 27.3 µM [cytotoxic, partial curve, poor fit] | 
16 | CC(Cc1ccccc1)NCc1ccccc1Cl (centres undefined) | inconclusive: 13.3 µM [cytotoxic, single point] | 
17 | Cc1ccc(OP(=O)(Oc2ccc(C)cc2)Oc2ccc(C)cc2)cc1 | inconclusive: 0.967 µM [cytotoxic, single point] | 

Some of the entries above, reformatted.

| Row | Compound | Potency | activity change, negative = cytotoxicity |
| --- | --- | --- | --- |
| 6 | COc1cc(CC#N)cc(OC)c1OC | inconclusive: 1.19 µM [cytotoxic, single point] |  |
| 7 | CCC(=O)c1ccccc1 |  | inactive: 0.33% |

Further entries.

Row | Compound | Potency | activity change, negative = cytotoxicity
18 | CCNc1nc(Cl)nc(NC(C)(C)C)n1 |  | inactive: -17.9%
19 | CO/C=C(/C(=O)OC)c1ccccc1Oc1cc(Oc2ccccc2C#N)ncn1 | inconclusive: 0.486 µM [cytotoxic, full curve, poor fit] | 
20 | CCNCC | inconclusive: 13.7 µM [rising, full curve, poor fit] | 
21 | CCOP(=O)(NC(C)C)Oc1ccc(SC)c(C)c1 (centres undefined) | inconclusive: 0.545 µM [cytotoxic, full curve, poor fit] | 
22 | O=c1[nH]c2ccccc2n1C1CCNCC1 | active: 0.266 µM | 
23 | O=c1c(C2CC(c3ccc(-c4ccc(Br)cc4)cc3)Cc3ccccc32)c(O)sc2ccccc12 (centres undefined) |  | inactive: -7.04% [at 42.5 µM]
24 | c1ccc(-c2cccc(-c3ccccc3)c2)cc1 | inconclusive: 24.6 µM [cytotoxic, single point] | 
25 | C[C@]12CC[C@@H]3c4ccc(OC(=O)N(CCCl)CCCl)cc4CC[C@H]3[C@@H]1CC[C@@H]2O | inconclusive: 2.37 µM [cytotoxic, partial curve, poor fit] | 
26 | O=C1C=CC(=O)c2ccccc21 | inconclusive: 68.6 µM [cytotoxic, single point] | 
27 | CC(C)CC#N |  | inactive: 3.7%
28 | O=C(CCl)NCO | inconclusive: 15.4 µM [cytotoxic, single point] | 
29 | CCCCCCCCn1cc[n+](C)c1 | inconclusive: 4.82 µM [cytotoxic, partial curve, poor fit] and inconclusive: 692 nM [cytotoxic, full curve, poor fit] and inconclusive: 30.9 µM [cytotoxic, partial curve] | 
30 | CCOC(=O)C(O)(c1ccc(Cl)cc1)c1ccc(Cl)cc1 | inconclusive: 30.9 µM [cytotoxic, full curve] and inconclusive: 68.6 µM [cytotoxic, single point] | 
31 | O=NN1CCCC1 | inactive | 
32 | CCN1CCC2(CC1)COc1cc3c(cc12)N(C(=O)c1ccc(-c2ccc(-c4nnc(C)o4)cc2C)cc1)CC3 | inconclusive: 63.3 µM [cytotoxic, single point] | 
33 | NS(=O)(=O)C(F)(F)C(F)(F)C(F)(F)C(F)(F)C(F)(F)C(F)(F)C(F)(F)C(F)(F)F | inconclusive: 9.69 µM [cytotoxic, partial curve, poor fit] | 
34 | CCCCn1cc[n+](C)c1C | inconclusive: 24.6 µM [cytotoxic, partial curve, poor fit] and inconclusive: 69.2 µM [cytotoxic, partial curve, poor fit] | 
